Source: the supplement of paper PMC6078165

Tested on: Hs578T
Assay: relative JC-1 red fluorescence (viability) vs pre-drug, coculture with fibroblast (fraction); higher = more viable cancer cells
Method: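 JC-1 labelled TNBC cells cocultured 1:1 (1,500 cells each) with CellTrace Violet stained primary or stromal fibroblasts in 384-well plates in FluoroBrite medium, treated with one of 42 anticancer drugs at 0.1, 1, 10 or 100 uM. JC-1 red fluorescence (mitochondrial integrity in cancer cells only) was read by plate reader every 8 h for 72 h. Values are normalised to each well's pre-drug value. The stock of one drug was tenfold lower, so its dose labels may be too high.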

CC(=O)O[C@@]12CO[C@@H]1C[C@H](O)[C@@]1(C)C(=O)[C@H](O)C3=C(C)[C@@H](OC(=O)[C@H](O)[C@@H](NC(=O)OC(C)(C)C)c4ccccc4)C[C@@](O)([C@@H](OC(=O)c4ccccc4)[C@H]21)C3(C)C [Docetaxel]
relative JC-1 red fluorescence
Conditions	8 h	16 h	24 h	32 h	40 h	48 h	56 h	64 h	72 h
0.1 µM	0.911 ± 0.073	0.798 ± 0.029	0.703 ± 0.024	0.606 ± 0.015	0.506 ± 0.052	0.473 ± 0.051	0.471 ± 0.047	0.453 ± 0.05	0.466 ± 0.056
1 µM	0.875 ± 0.016	0.717 ± 0.009	0.6968 ± 0.0041	0.663 ± 0.028	0.609 ± 0.033	0.581 ± 0.02	0.585 ± 0.027	0.569 ± 0.029	0.583 ± 0.025

relative JC-1 red fluorescence
Conditions	8 h	16 h	24 h	32 h	40 h	48 h	56 h	64 h	72 h
0.1 µM, coculture fibroblast: C12385	0.833 ± 0.027	0.692 ± 0.007	0.634 ± 0.025	0.512 ± 0.029	0.428 ± 0.036	0.393 ± 0.036	0.37 ± 0.032	0.379 ± 0.046	0.395 ± 0.048
0.1 µM, coculture fibroblast: H6013	0.8282 ± 0.0077	0.8039 ± 0.0037	0.744 ± 0.013	0.666 ± 0.067	0.613 ± 0.085	0.611 ± 0.11	0.607 ± 0.12	0.63 ± 0.12	0.629 ± 0.12
0.1 µM, coculture fibroblast: H6019	0.761 ± 0.018	0.661 ± 0.013	0.644 ± 0.015	0.548 ± 0.0063	0.513 ± 0.0074	0.5 ± 0.01	0.483 ± 0.014	0.492 ± 0.015	0.487 ± 0.016
0.1 µM, coculture fibroblast: H6076	0.893 ± 0.045	0.823 ± 0.035	0.698 ± 0.002	0.609 ± 0.03	0.53 ± 0.059	0.513 ± 0.077	0.506 ± 0.1	0.508 ± 0.1	0.523 ± 0.11
0.1 µM, coculture fibroblast: H6231	0.911 ± 0.013	0.82 ± 0.0097	0.73 ± 0.011	0.668 ± 0.011	0.578 ± 0.011	0.554 ± 0.013	0.5273 ± 0.0012	0.517 ± 0.0074	0.5233 ± 0.0014
0.1 µM, coculture fibroblast: HADF	0.856 ± 0.03	0.745 ± 0.036	0.648 ± 0.048	0.547 ± 0.046	0.48 ± 0.025	0.4595 ± 0.0028	0.4391 ± 0.00081	0.4448 ± 0.0024	0.437 ± 0.014
0.1 µM, coculture fibroblast: HCFa	0.8146 ± 0.0062	0.7553 ± 0.0036	0.669 ± 0.045	0.545 ± 0.058	0.473 ± 0.062	0.458 ± 0.073	0.439 ± 0.079	0.44 ± 0.083	0.426 ± 0.097
0.1 µM, coculture fibroblast: HCPF	0.865 ± 0.02	0.7861 ± 0.0071	0.7274 ± 0.0056	0.677 ± 0.016	0.593 ± 0.0068	0.577 ± 0.009	0.575 ± 0.0097	0.555 ± 0.012	0.554 ± 0.013
0.1 µM, coculture fibroblast: HHSteC	0.873 ± 0.018	0.76 ± 0.003	0.664 ± 0.011	0.54 ± 0.05	0.457 ± 0.055	0.427 ± 0.055	0.407 ± 0.05	0.4 ± 0.052	0.381 ± 0.051
0.1 µM, coculture fibroblast: HMF	0.822 ± 0.032	0.735 ± 0.028	0.658 ± 0.067	0.602 ± 0.056	0.503 ± 0.048	0.477 ± 0.045	0.462 ± 0.051	0.457 ± 0.05	0.457 ± 0.049
0.1 µM, coculture fibroblast: HPFa	0.93 ± 0.018	0.86 ± 0.035	0.772 ± 0.068	0.632 ± 0.091	0.551 ± 0.094	0.522 ± 0.1	0.494 ± 0.11	0.486 ± 0.11	0.463 ± 0.12
0.1 µM, coculture fibroblast: HUF	0.8955 ± 0.00096	0.7484 ± 0.0061	0.7379 ± 0.0014	0.6197 ± 0.00097	0.555 ± 0.03	0.539 ± 0.023	0.523 ± 0.031	0.537 ± 0.03	0.546 ± 0.034
0.1 µM, coculture fibroblast: Hs27A	0.884 ± 0.016	0.785 ± 0.018	0.677 ± 0.057	0.561 ± 0.056	0.489 ± 0.069	0.49 ± 0.08	0.478 ± 0.086	0.49 ± 0.089	0.476 ± 0.095
0.1 µM, coculture fibroblast: Hs343T	0.866 ± 0.05	0.758 ± 0.032	0.698 ± 0.046	0.632 ± 0.036	0.529 ± 0.049	0.505 ± 0.053	0.481 ± 0.059	0.477 ± 0.058	0.494 ± 0.064
0.1 µM, coculture fibroblast: WS1	0.821 ± 0.03	0.699 ± 0.012	0.649 ± 0.039	0.539 ± 0.04	0.449 ± 0.046	0.421 ± 0.049	0.392 ± 0.048	0.4 ± 0.064	0.408 ± 0.066
1 µM, coculture fibroblast: C12385	0.8385 ± 0.0036	0.733 ± 0.044	0.658 ± 0.019	0.533 ± 0.014	0.446 ± 0.027	0.405 ± 0.031	0.388 ± 0.029	0.395 ± 0.024	0.404 ± 0.024
1 µM, coculture fibroblast: H6013	0.882 ± 0.038	0.8037 ± 0.007	0.779 ± 0.031	0.72 ± 0.027	0.679 ± 0.013	0.688 ± 0.023	0.689 ± 0.037	0.71 ± 0.041	0.701 ± 0.042
1 µM, coculture fibroblast: H6019	0.783 ± 0.019	0.64 ± 0.011	0.664 ± 0.06	0.57 ± 0.07	0.557 ± 0.08	0.551 ± 0.08	0.541 ± 0.074	0.557 ± 0.086	0.553 ± 0.081
1 µM, coculture fibroblast: H6076	0.888 ± 0.016	0.7912 ± 0.0024	0.7015 ± 0.005	0.662 ± 0.032	0.613 ± 0.017	0.622 ± 0.019	0.628 ± 0.025	0.639 ± 0.028	0.663 ± 0.033
1 µM, coculture fibroblast: H6231	0.858 ± 0.0069	0.7788 ± 0.0035	0.65617 ± 1.4e-06	0.612 ± 0.0082	0.543 ± 0.022	0.523 ± 0.023	0.504 ± 0.012	0.486 ± 0.019	0.506 ± 0.021
1 µM, coculture fibroblast: HADF	0.929 ± 0.017	0.8409 ± 0.00078	0.7871 ± 0.002	0.694 ± 0.04	0.628 ± 0.076	0.612 ± 0.088	0.595 ± 0.095	0.6 ± 0.1	0.593 ± 0.12
1 µM, coculture fibroblast: HCFa	0.89 ± 0.035	0.81 ± 0.013	0.738 ± 0.028	0.67 ± 0.033	0.628 ± 0.042	0.63 ± 0.042	0.615 ± 0.029	0.626 ± 0.028	0.609 ± 0.033
1 µM, coculture fibroblast: HCPF	0.9115 ± 0.0029	0.7974 ± 0.0077	0.727 ± 0.023	0.6629 ± 0.0032	0.5763 ± 0.0044	0.542 ± 0.016	0.544 ± 0.015	0.512 ± 0.021	0.515 ± 0.017
1 µM, coculture fibroblast: HHSteC	0.893 ± 0.03	0.786 ± 0.047	0.69 ± 0.044	0.593 ± 0.076	0.532 ± 0.087	0.528 ± 0.097	0.514 ± 0.09	0.517 ± 0.085	0.502 ± 0.079
1 µM, coculture fibroblast: HMF	0.812 ± 0.011	0.68 ± 0.013	0.602 ± 0.022	0.559 ± 0.015	0.502 ± 0.039	0.476 ± 0.042	0.463 ± 0.044	0.459 ± 0.046	0.468 ± 0.044
1 µM, coculture fibroblast: HPFa	0.944 ± 0.032	0.919 ± 0.068	0.776 ± 0.054	0.672 ± 0.071	0.599 ± 0.051	0.57 ± 0.055	0.536 ± 0.058	0.522 ± 0.04	0.5 ± 0.046
1 µM, coculture fibroblast: HUF	0.882 ± 0.029	0.786 ± 0.042	0.737 ± 0.1	0.611 ± 0.12	0.564 ± 0.13	0.53 ± 0.14	0.507 ± 0.14	0.521 ± 0.15	0.526 ± 0.16
1 µM, coculture fibroblast: Hs27A	0.903 ± 0.0015	0.864 ± 0.016	0.775 ± 0.029	0.685 ± 0.041	0.631 ± 0.087	0.619 ± 0.1	0.606 ± 0.11	0.612 ± 0.13	0.59 ± 0.13
1 µM, coculture fibroblast: Hs343T	0.862 ± 0.023	0.716 ± 0.015	0.631 ± 0.024	0.603 ± 0.033	0.514 ± 0.035	0.488 ± 0.029	0.468 ± 0.011	0.468 ± 0.0056	0.49 ± 0.0095
1 µM, coculture fibroblast: WS1	0.82 ± 0.013	0.69 ± 0.014	0.648 ± 0.013	0.5339 ± 0.0019	0.4654 ± 0.0045	0.445 ± 0.006	0.424 ± 0.011	0.433 ± 0.012	0.442 ± 0.016

± gives the standard deviation of the averaged measurements. Values are relative to the signal before dosing, not to a vehicle control; the signal also falls without drug.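 Fibroblast labels denote human fibroblasts, mainly primary ones from uterus (C12385, HUF), lung (H6013), bone (Hs27A), adrenal (HADF) and skin (WS1), plus mammary HMF and breast cancer-associated Hs343T. Cancer cells are basal-like or mesenchymal-like triple-negative breast cancer lines. A hit is a response shift exceeding 3x replicate standard deviation. The tissue of the other fibroblasts is not given here.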
